Data as given in patent publication EP1071442B9 (priority 1998, dated 1999).
Strings that start with PEPTIDE1 are HELM notation: dots part the residues, brackets hold end groups and non-standard residues.

Assay: general procedure: hybrid (solid and solution phase) peptide synthesis; 2-chlorotrityl chloride resin (super acid sensitive); HBTU/HOBT/DIEA (solid phase); HBTU/HOAT/EtPr2N (solution phase)

Substance: PEPTIDE1{[Fmoc].[Asp(tBu)].[Lys(Boc)].[Trp(Boc)].A.[Ser(tBu)].L.[Trp(Boc)].[Asn(trt)].[Trp(Boc)].F.[am]}$$$$V2.0
- crude HPLC purity (coupling step, 260 nm): 93A%
- crude HPLC purity (coupling step, HPLC, Phenomenex Jupiter C5, 260 nm): 87.IA%
- step yield (coupling step, run 1): 100%

Substance: PEPTIDE1{[Fmoc].[Glu(tBu)].[Lys(Boc)].[Asn(trt)].[Glu(tBu)].[Gln(trt)].[Glu(tBu)].L.L.[Glu(tBu)].L.[Asp(tBu)].[Lys(Boc)].[Trp(Boc)].A.[Ser(tBu)].L.[Trp(Boc)].[Asn(trt)].[Trp(Boc)].F.[am]}$$$$V2.0
- final HPLC purity (coupling step, 260 nm): 95.5A%
- step yield (coupling step, run 1): 90%
- step yield (coupling step, run 2): 84.3%
- step yield (coupling step, run 3): 85%

Substance: PEPTIDE1{[Fmoc].[Glu(tBu)].[Lys(Boc)].[Asn(trt)].[Glu(tBu)].[Gln(trt)].[Glu(tBu)].L.L.[Glu(tBu)].L}$$$$V2.0
- crude HPLC purity (whole synthesis, HPLC, Phenomenex Jupiter C5, 260 nm): 97%
- final HPLC purity (whole synthesis, HPLC, Phenomenex Jupiter C5, 260 nm, run 1): 96%
- crude yield (whole synthesis, run 1): 8%
- isolated yield (whole synthesis, run 1): 90%
- crude yield (whole synthesis, run 2): 105%
- isolated yield (whole synthesis, run 2): 90.6%
